Source: article PMC4182809
These are yes or no findings as the source states them, for the method shown. Some entries that bind do so weakly or less than the wild type.

Molecular target: plastidic glutamine synthetase (GS2), maize, stromal form (maize (endogenous in maize chloroplasts)) (UniProt P25462)
Assay: native gel or EMSA; BN-PAGE (4-16% Bis-Tris gradient gel, 4°C) of stroma and thylakoid proteins of chloroplasts, western blot, with 2D SDS-PAGE; extraction in 20 mM Hepes-KOH pH 7.5, or potassium phosphate pH 6 or pH 8 with or without 0.1 M NaCl, 10 mM DTT or 10 mM ascorbic acid

B1: plastidic glutamine synthetase (GS2), maize, stromal form (enzyme, UniProt P25462 52-423)
chain: VPRLEQLLNMDTTPYTDKVIAEYIWVGGSGIDIRSKSRTISKPVEDPSELPKWNYDGSSTGQAPGEDSEVILYPQAIFKDPFRGGNNVLVICDTYTPQGEPLPTNKRHRAAQIFSDPKVGEQVPWFGIEQEYTLLQKDVNWPLGWPVGGFPGPQGPYYCAVGADKSFGRDISDAHYKACLYAGINISGTNGEVMPGQWEYQVGPSVGIEAGDHIWISRYILERITEQAGVVLTLDPKPIQGDWNGAGCHTNYSTKTMREDGGFEEIKRAILNLSLRHDLHISAYGEGNERRLTGKHETASIGTFSWGVANRGCSIRVGRDTEAKGKGYLEDRRPASNMDPYIVTGLLAETTILWQPSLEAEALAAKKLALKV
binding: binds
